Measured data: PubChem BioAssay AID1508588 (Peter MacCallum Cancer Centre, 2020)

- Purpose: 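Which gene losses make BRAF-mutant melanoma cells more responsive to vemurafenib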 (primary screen)
- Cells: human WM266.4 melanoma cells (BRAF V600 mutant)
- Reagent: siRNA pool against human genes, 40 nM
- Timing: 96 h from transfection to read-out
- Conditions: vemurafenib 300 nM (about IC25), added 48 h after transfection, for 48 h; comparison arm got DMSO vehicle only
- Measured: 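Ratios to non-targeting siRNA for cell gain, counted as DAPI nuclei after minus before drug and averaged over two replicates, and for absorbance-read medium lactate per cell; both binned into fold-change classes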
- Reading the numbers: cell gain with vemurafenib: higher = more cell gain than with non-targeting siRNA; lactate per cell with vemurafenib: higher = more lactate made per cell
- Hit rule: 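a knock-down counts as enhancing when its fold-change classes with vehicle and with vemurafenib, taken together, show a stronger drug effect on cell gain or lactate per cell; exact class pairs not stated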
- Meaning of the calls: active = enhances vemurafenib effect; inactive = no enhancement seen
The deposit covers about 18,000 reagents; shown is a random part of them. Over the whole deposit, 790 (4.4%) were called active. 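Calls rest on a combination of fold-change classes in drug and vehicle arms, not all shown here.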 Entries without a mark were called inactive. The numbers tell different reagents against one gene apart.

With PRAMEF16 (retired record), how do the results read?
cell gain with vemurafenib: 0.4; lactate per cell with vemurafenib: 1.41

How did the screen score TNKS2 (tankyrase 2)?
cell gain with vemurafenib: 0.9; lactate per cell with vemurafenib: 0.7

For BIRC3 (baculoviral IAP repeat containing 3), how do the results read?
cell gain with vemurafenib: 0.97; lactate per cell with vemurafenib: 0.86

With NOX1 (NADPH oxidase 1), what was measured?
cell gain with vemurafenib: 0.53; lactate per cell with vemurafenib: 1.4

For CCDC144NL (CCDC144A N-terminal like (pseudogene)), how do the results read?
cell gain with vemurafenib: 0.77; lactate per cell with vemurafenib: 1.27

What did the screen give for SEMA4F (ssemaphorin 4F)?
cell gain with vemurafenib: 0; lactate per cell with vemurafenib: 0

For KLHDC7B (kelch domain containing 7B), what does the deposit list?
cell gain with vemurafenib: 0.63; lactate per cell with vemurafenib: 0.54

For ZNF121 (zinc finger protein 121), what was measured?
cell gain with vemurafenib: 0.98; lactate per cell with vemurafenib: 0.64

Which result is listed for ACAP3 (ArfGAP with coiled-coil, ankyrin repeat and PH domains 3)?
cell gain with vemurafenib: 0.67; lactate per cell with vemurafenib: 0.95

With ACTL8 (actin like 8), what does the deposit list?
cell gain with vemurafenib: 0.75; lactate per cell with vemurafenib: 1.16

What is on record for CACNB1 (calcium voltage-gated channel auxiliary subunit beta 1)?
cell gain with vemurafenib: 0.16 (active); lactate per cell with vemurafenib: 0.46

For BIRC7 (baculoviral IAP repeat containing 7), how do the results read?
cell gain with vemurafenib: 0.97; lactate per cell with vemurafenib: 0.84

Which result is listed for CD81 (CD81 molecule)?
cell gain with vemurafenib: 0.24; lactate per cell with vemurafenib: 1.7

With RIN2 (Ras and Rab interactor 2), what does the deposit list?
cell gain with vemurafenib: 0.84; lactate per cell with vemurafenib: 0.58

How did the screen score ARHGAP27 (Rho GTPase activating protein 27) #1?
cell gain with vemurafenib: 0.59; lactate per cell with vemurafenib: 1.02

With ARHGAP27 (Rho GTPase activating protein 27) #2, how do the results read?
cell gain with vemurafenib: 0.87; lactate per cell with vemurafenib: 1.79

Active calls (from the list above):
CACNB1 (calcium voltage-gated channel auxiliary subunit beta 1) | cell gain with vemurafenib = 0.16 (active); lactate per cell with vemurafenib = 0.46
